The results in this text go back to paper PMC10907597.

Sequences of proteins named here, by UniProt entry; tags and fusion partners are left off.
UniProt O75159: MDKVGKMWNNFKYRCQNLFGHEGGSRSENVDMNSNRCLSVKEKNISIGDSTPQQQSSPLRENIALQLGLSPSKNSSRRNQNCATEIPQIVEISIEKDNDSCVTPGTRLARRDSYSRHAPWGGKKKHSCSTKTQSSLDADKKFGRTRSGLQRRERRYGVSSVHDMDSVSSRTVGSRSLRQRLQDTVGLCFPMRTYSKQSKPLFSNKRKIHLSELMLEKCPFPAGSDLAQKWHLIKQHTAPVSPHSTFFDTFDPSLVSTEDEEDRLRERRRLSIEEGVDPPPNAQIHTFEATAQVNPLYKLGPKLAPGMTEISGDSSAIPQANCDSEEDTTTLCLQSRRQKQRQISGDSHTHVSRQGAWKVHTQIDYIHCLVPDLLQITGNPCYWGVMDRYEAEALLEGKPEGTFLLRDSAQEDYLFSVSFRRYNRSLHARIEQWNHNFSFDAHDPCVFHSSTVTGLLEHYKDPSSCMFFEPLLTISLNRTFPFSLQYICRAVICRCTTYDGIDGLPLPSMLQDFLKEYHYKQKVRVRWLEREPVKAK
UniProt P38159: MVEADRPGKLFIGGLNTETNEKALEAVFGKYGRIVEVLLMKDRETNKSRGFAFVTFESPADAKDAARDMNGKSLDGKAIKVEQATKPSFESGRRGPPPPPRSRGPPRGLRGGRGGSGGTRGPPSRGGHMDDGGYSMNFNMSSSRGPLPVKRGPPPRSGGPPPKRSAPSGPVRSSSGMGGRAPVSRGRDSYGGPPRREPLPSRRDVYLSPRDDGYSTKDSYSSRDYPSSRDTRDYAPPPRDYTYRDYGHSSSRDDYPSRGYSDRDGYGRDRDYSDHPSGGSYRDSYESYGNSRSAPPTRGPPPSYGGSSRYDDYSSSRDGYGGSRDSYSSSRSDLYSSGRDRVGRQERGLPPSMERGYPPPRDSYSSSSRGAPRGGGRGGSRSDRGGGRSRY

The target of the experiment is SOCS5-HA (suppressor of cytokine signaling 5, HA-tagged) (UniProt O75159). Nature of the experiment: affinity purification with mass spectrometry; SOCS5-HA in Huh7 cells precipitated with an anti-HA antibody; co-precipitated proteins identified by mass spectrometry.

Results are given in words; binding and its absence hold for the method and conditions named. Binding seen in cells or lysates may run through a third protein. A yes stands for co-enrichment or nearness to the bait. Other partners may have been found.

Consider “RBMX (RNA binding motif protein X-linked), endogenous (from UniProt P38159 1-391)”, for which the binding result is listed as “binds”.
